# Laboratory results from publication PMC7819943, “Rice protein-binding microarrays: a tool to detect cis-acting elements near promoter regions in rice”.
# Sequences of proteins named here, by UniProt entry; tags and fusion partners are left off.
# UniProt Q0JBA9, entry or part of it: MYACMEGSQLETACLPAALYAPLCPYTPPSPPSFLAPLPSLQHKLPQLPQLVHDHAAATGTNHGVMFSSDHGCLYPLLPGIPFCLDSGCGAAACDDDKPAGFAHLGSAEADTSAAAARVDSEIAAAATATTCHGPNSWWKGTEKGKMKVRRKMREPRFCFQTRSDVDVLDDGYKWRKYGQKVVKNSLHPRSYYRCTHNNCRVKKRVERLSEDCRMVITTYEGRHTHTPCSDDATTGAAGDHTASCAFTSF
# This is one part of the list.
# Target: OsWRKY34 (Oryza sativa, UniProt Q0JBA9 1-250)
# Assay: protein-binding microarray (RPBM); PBS, 2% BSA, 51.3 ng/ul salmon testes DNA, 50 uM zinc acetate, 200 nM TF, 25 C, 1 h; high values mean tight binding
# Conditions: protein: recombinant; tags: N-terminal polyhistidine and DsRed monomer fusion (pET32a); label: CyDye5-dUTP incorporated in the synthesized complementary strand; 3' TTTTT single-stranded linker to array surface; dsDNA, one strand shown
# Procedure, shortened: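 A custom Agilent array was converted to double-stranded form by primer extension with Cy5-dUTP and blocked with 2% BSA. Protein at 200 nM in PBS with 2% BSA, salmon testes DNA and 50 µM zinc acetate was applied for 1 h at 25 °C, followed by washing. The proteins were polyhistidine–DsRed N-terminal fusions of transcription factors, expressed in E. coli BL21-CodonPlus and Ni–NTA-purified. The binding signal is per-feature fluorescence intensity (arbitrary units) from an Axon 4000B scanner.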
row,Sequence,binding signal
1,CCACTGACCTGAATTCACCGTTTTACCCCTCCCCGTTCCACGGAGTCACCTAGTGCAG,10500 fluorescence intensity (a.u.)
2,CGTTTGTCCTTCGATAACAGTGTGTCATGGCCCATATATACGGAGTCACCTAGTGCAG,8190 fluorescence intensity (a.u.)
3,GATTTAGGCTGCTCCACTACTTCACTCTAGATTTAACTTTCGGAGTCACCTAGTGCAG,13100 fluorescence intensity (a.u.)
4,GCTGACTACGAATCTGTAGCTTGTTGTTTTTCTCTTTTCTCGGAGTCACCTAGTGCAG,11100 fluorescence intensity (a.u.)
5,GGAGCACTCCGTCTCCCACCCGTTGACCCGAGCGAGCTCCCGGAGTCACCTAGTGCAG,10000 fluorescence intensity (a.u.)
6,GGTCCACCCATGGCCACCCGTTGCTATGGCGCTCATGAGCCGGAGTCACCTAGTGCAG,8830 fluorescence intensity (a.u.)
7,TTCAAATTTTTTTCGTTCATTTTATGGTCTCTTTTTGCGACGGAGTCACCTAGTGCAG,10100 fluorescence intensity (a.u.)
8,AGTTCTATATAAGTTGCTGAGCCCACATGGAGATATTACACGGAGTCACCTAGTGCAG,8090 fluorescence intensity (a.u.)
9,CTCACCTACCGCATCTGTGTTCCTTTTGCTTTCTTTCTTTCGGAGTCACCTAGTGCAG,18100 fluorescence intensity (a.u.)
10,GAGGAAGCAGTTTACTCTCCTTTCTATGTGTATTTGATTACGGAGTCACCTAGTGCAG,9150 fluorescence intensity (a.u.)
11,TCCCTCTAGCATAGTGCTGATCTTGCCCATTCAGTGTTTCCGGAGTCACCTAGTGCAG,10100 fluorescence intensity (a.u.)
12,AAAATCCGCTCGCTCGCAGGTCTCCGCCTCACACCAACACCGGAGTCACCTAGTGCAG,8740 fluorescence intensity (a.u.)
13,CGTGCATCCGCTGCGCTGTGCTGCCATTTCTCTTCAGCTTCGGAGTCACCTAGTGCAG,10600 fluorescence intensity (a.u.)
14,TCATACACATATTTTCCTTTTCCGTATGTATAGTAAATTACGGAGTCACCTAGTGCAG,8800 fluorescence intensity (a.u.)
15,TGATTTTTGTCCCACGTGGCATTGACGTGGCGCTTATGTGCGGAGTCACCTAGTGCAG,8850 fluorescence intensity (a.u.)
16,AATATGTACTACTTCCGTTTCAGGTTATAAGACTTTCTAGCGGAGTCACCTAGTGCAG,8400 fluorescence intensity (a.u.)
17,TTTATCTCTATTTGCTGTGTTACTCTCGAGTTTTAGTTTCCGGAGTCACCTAGTGCAG,13100 fluorescence intensity (a.u.)
18,GCCGTGCGCCGCTCGCCGCTCGCCGCGCGCTGTCGATGCCCGGAGTCACCTAGTGCAG,8200 fluorescence intensity (a.u.)
19,CATTGCCATCTTACATTTCTACTCATCTGTCCTCCAAATCCGGAGTCACCTAGTGCAG,8500 fluorescence intensity (a.u.)
20,ACCACCACCTTCGCCACGAGCTCCACGCCGTTGCCACTGTCGGAGTCACCTAGTGCAG,8460 fluorescence intensity (a.u.)
21,CCCTCCACCACCACCCGCCGCCGCCGCCGCCCAAAACCCTCGGAGTCACCTAGTGCAG,10000 fluorescence intensity (a.u.)
22,GTTCTTCCCGCCGGCCTATCGTATTACCGAAATTTGATAGCGGAGTCACCTAGTGCAG,8680 fluorescence intensity (a.u.)
23,ATCACCAGTTGCCATTCTGTCACCTCAACTTAGAACATACCGGAGTCACCTAGTGCAG,8290 fluorescence intensity (a.u.)
24,CCATCCATTTCTTGCTGAATTCTCTCTTCTTTAATTCATCCGGAGTCACCTAGTGCAG,8920 fluorescence intensity (a.u.)
25,TGAGGATGCTTTATATATATGCTGGTTTTATGGTTGATAACGGAGTCACCTAGTGCAG,8730 fluorescence intensity (a.u.)
26,GGGAGGGGTTGGGAACTTGAAGGAAAGAACACAGCCTTAACGGAGTCACCTAGTGCAG,11300 fluorescence intensity (a.u.)
27,ACTTTTTCCATTACAGTTTGGGTTGAACATGTTGGGCCTTCGGAGTCACCTAGTGCAG,8170 fluorescence intensity (a.u.)

# Reformatted: results already given.
row	Sequence	binding signal
18	GCCGTGCGCCGCTCGCCGCTCGCCGCGCGCTGTCGATGCCCGGAGTCACCTAGTGCAG	8200 fluorescence intensity (a.u.)
23	ATCACCAGTTGCCATTCTGTCACCTCAACTTAGAACATACCGGAGTCACCTAGTGCAG	8290 fluorescence intensity (a.u.)
25	TGAGGATGCTTTATATATATGCTGGTTTTATGGTTGATAACGGAGTCACCTAGTGCAG	8730 fluorescence intensity (a.u.)

# Continuation.

row,Sequence,binding signal
1,ACTGCTGATATGTTATCCTTTTTTACTGCAGATAAACTTCCGGAGTCACCTAGTGCAG,8560 fluorescence intensity (a.u.)
2,CTCATGCTGCTAGATACGCTAGTACTTCCTAAGGCTACTTCGGAGTCACCTAGTGCAG,8830 fluorescence intensity (a.u.)
3,TGTATTTCCTTTCCTTTGTACAAGTTCAATCCTAGATAGTCGGAGTCACCTAGTGCAG,9410 fluorescence intensity (a.u.)
4,TACTTGGGTGGGAATGGGTTGAATTGGGATTCTAATCTGCCGGAGTCACCTAGTGCAG,13500 fluorescence intensity (a.u.)
5,TTGTTGACCATGACCTAACTCTGACCATGAATCGTCTTCTCGGAGTCACCTAGTGCAG,11700 fluorescence intensity (a.u.)
6,TAACATCATTCCCATAGCGCTATCCATCCATATAATCAAACGGAGTCACCTAGTGCAG,8180 fluorescence intensity (a.u.)
7,CGGGGAGGAGGGAGGAATAAATACGTCCTAGTCGATCAGCCGGAGTCACCTAGTGCAG,8150 fluorescence intensity (a.u.)
8,CTTTCTGTACAATGTTTTGTACTACTCCGTTTCACAATATCGGAGTCACCTAGTGCAG,8540 fluorescence intensity (a.u.)
9,TGGGACATTTTCGGGGTATACTTTCATTCTCCCGATTCTACGGAGTCACCTAGTGCAG,9820 fluorescence intensity (a.u.)
10,TCCTCGTCACTCCACTATCGAATCCACCTCCATCATTGACCGGAGTCACCTAGTGCAG,12000 fluorescence intensity (a.u.)
11,AGCGTGTACATCCCTGTTAACTTGGCCTGTCGGACCTCATCGGAGTCACCTAGTGCAG,9340 fluorescence intensity (a.u.)
12,GCTGCATTTGTTCTTGGCACAAACTTTGGAGTTTTTATTTCGGAGTCACCTAGTGCAG,8650 fluorescence intensity (a.u.)
13,GCAGGACGATCTCATTTGTGTTCCTATTTTACAGGTCAAACGGAGTCACCTAGTGCAG,9320 fluorescence intensity (a.u.)
14,TCCATCCAACGCCCGTCCTTGCTTTAATTTGTTTCACCACCGGAGTCACCTAGTGCAG,8940 fluorescence intensity (a.u.)
15,ATCCTCACCGCCCGTCCGCGCCGTGCACGCTCCCAGATCACGGAGTCACCTAGTGCAG,9660 fluorescence intensity (a.u.)
16,TTGGGTGGGATTTAAACAGGGTATTAGTGGATAATGATGTCGGAGTCACCTAGTGCAG,9570 fluorescence intensity (a.u.)
17,GTACCATAAAGTCATTCCTGTTTCGGCCCAAATTGCCCAACGGAGTCACCTAGTGCAG,9540 fluorescence intensity (a.u.)
18,TTCATGCGCCTCAGCCATCCCTTTATTTAAATGTAGCACACGGAGTCACCTAGTGCAG,8240 fluorescence intensity (a.u.)
19,CGAACGGTCGTCTGCCACGTCATTTTCGCCGCCCTCTGAGCGGAGTCACCTAGTGCAG,10300 fluorescence intensity (a.u.)
20,AGTCCACCATCAATTCCACTTCATCCTTTCGCCCTTTAATCGGAGTCACCTAGTGCAG,9420 fluorescence intensity (a.u.)
21,TTGCAAAATTTAAAATTATGTTGTCATTGTAATATATTTTCGGAGTCACCTAGTGCAG,8440 fluorescence intensity (a.u.)
22,GACGCCCCGCCCCGCGCCCCGCGCCTCGATCCTCGCCTCCCGGAGTCACCTAGTGCAG,10300 fluorescence intensity (a.u.)
23,GATAAGGAGACTAGTCACGCTCACGCTTGATTGTTCTATTCGGAGTCACCTAGTGCAG,11000 fluorescence intensity (a.u.)
24,TCTGTCCTGATAGCTGCTCATGCTTAATGTTTCTTTCCTGCGGAGTCACCTAGTGCAG,9470 fluorescence intensity (a.u.)
25,TTTTTGGGCGTAATCCAGCGCGGCCGTCCGCCCGAGATCTCGGAGTCACCTAGTGCAG,8590 fluorescence intensity (a.u.)
26,GCCTCCGACCACCGCAGGGCTCCGTCCCGCCGCCTCCCAGCGGAGTCACCTAGTGCAG,8300 fluorescence intensity (a.u.)
27,CTTAGTCCTCATTGCATACCATAGAACATTCCTAGATAGACGGAGTCACCTAGTGCAG,9420 fluorescence intensity (a.u.)
